These are yes or no findings as the source states them, for the method shown. In cells and extracts the contact can be indirect. Some results given as binding are weak or reduced against the parent protein; the word gives no strength. For some assays here: Sequences can lack the tags named with a protein. One block for each molecule: values may come before it.
Assays:
HA-NRIP2 = target: T1, HA-NRIP2 (UniProt Q9BQI9); test: co-IP; podocytes co-transfected with Myc-β-catenin (full length or deletion mutants) and HA-NRIP2, lysed after 24 h; IP with HA beads, immunoblot with anti-Myc and anti-HA
T1 sequence: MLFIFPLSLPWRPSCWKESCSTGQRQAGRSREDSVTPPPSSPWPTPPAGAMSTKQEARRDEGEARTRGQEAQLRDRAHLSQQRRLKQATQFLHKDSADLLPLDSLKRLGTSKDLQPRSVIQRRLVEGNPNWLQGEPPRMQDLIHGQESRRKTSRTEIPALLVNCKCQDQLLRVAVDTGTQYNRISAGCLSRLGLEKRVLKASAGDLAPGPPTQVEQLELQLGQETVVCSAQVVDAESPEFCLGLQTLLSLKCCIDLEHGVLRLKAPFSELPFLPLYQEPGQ

Sequences of proteins named here, by UniProt entry; tags and fusion partners are left off.
UniProt P35222: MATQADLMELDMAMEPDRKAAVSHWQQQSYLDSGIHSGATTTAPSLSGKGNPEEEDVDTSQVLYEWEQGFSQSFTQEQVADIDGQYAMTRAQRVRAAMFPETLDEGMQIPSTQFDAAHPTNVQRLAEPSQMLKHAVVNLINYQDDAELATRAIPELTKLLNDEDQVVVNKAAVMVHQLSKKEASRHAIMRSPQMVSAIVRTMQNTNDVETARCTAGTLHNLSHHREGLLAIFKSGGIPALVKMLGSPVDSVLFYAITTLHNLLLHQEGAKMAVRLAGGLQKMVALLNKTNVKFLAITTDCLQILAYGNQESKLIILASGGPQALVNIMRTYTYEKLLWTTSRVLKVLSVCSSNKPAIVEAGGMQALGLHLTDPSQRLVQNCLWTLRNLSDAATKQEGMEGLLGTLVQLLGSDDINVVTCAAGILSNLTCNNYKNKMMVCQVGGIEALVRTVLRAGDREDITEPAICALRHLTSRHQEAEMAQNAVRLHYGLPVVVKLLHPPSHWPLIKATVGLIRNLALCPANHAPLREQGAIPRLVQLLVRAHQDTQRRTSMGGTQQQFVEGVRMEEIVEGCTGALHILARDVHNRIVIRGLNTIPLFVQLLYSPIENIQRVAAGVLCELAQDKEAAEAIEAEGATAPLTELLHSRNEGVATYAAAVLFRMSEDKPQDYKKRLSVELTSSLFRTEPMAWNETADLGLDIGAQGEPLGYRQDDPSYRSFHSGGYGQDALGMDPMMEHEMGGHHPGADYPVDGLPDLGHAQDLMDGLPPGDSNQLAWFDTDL

[1] = target: β-catenin (endogenous) (human (endogenous in the human podocyte cell line)) (UniProt P35222); test: co-IP; whole-cell extracts of cultured human podocytes; β-catenin antibody overnight at 4°C, protein A/G magnetic beads, washes with cold PBS; immunoblot for NRIP2; cells transfected with NRIP2 siRNA as negative control

- binding (HA-NRIP2): binds
Molecule: Myc-tagged β-catenin full length (from UniProt P35222 1-781)

- binding [1]: binds
B1: Nuclear receptor interacting protein 2 (endogenous) (protein, UniProt Q9BQI9 1-281)
chain: T1 sequence
